We go through three molecules from paper PMC7304647.

No constants are given. Whether binding was seen depends on the method and setting. For part of these data: Binding seen in cells or lysates may run through a third protein. Some binding calls cover weakened binding; strength is not graded here.

The target of assay [1] is T1, AtSCC4 (BiFC construct) (Arabidopsis) (UniProt Q9FGN7).
T1 sequence: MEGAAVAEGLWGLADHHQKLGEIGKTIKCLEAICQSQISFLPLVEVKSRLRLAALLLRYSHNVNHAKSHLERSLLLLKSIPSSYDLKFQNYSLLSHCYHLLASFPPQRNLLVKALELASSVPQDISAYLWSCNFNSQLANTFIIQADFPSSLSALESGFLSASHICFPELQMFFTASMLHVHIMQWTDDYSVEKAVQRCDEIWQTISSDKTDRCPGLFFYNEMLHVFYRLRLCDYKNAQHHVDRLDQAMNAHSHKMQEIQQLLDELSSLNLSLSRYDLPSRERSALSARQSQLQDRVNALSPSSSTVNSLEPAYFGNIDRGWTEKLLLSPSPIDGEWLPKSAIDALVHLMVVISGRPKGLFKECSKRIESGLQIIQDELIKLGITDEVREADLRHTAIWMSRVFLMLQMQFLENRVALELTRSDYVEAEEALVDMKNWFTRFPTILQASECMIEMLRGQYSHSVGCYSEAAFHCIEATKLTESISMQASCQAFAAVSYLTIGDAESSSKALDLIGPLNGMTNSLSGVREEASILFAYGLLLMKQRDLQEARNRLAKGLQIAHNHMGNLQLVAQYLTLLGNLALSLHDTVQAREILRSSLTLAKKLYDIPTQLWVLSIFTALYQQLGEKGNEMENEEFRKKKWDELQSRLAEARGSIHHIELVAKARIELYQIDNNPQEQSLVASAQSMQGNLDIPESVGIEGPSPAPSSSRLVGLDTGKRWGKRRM
Kind of assay: split reporter; bimolecular fluorescence complementation (BiFC) in tobacco cells.

Assay [2] addresses T2, AtSCC4 (yeast two-hybrid construct) (Arabidopsis) (UniProt Q9FGN7).
T2 sequence: T1 sequence
Kind of assay: two-hybrid; yeast two-hybrid of AtSCC2 N-terminal constructs with AtSCC4; bait and prey not told.

On to “AtSCC2 (BiFC construct) (from UniProt A5HEI1 1-1846)”, for which the binding result in assay [1] is recorded as “binds”.

B1: AtSCC2N2 (255–427 aa) (domain or fragment, UniProt A5HEI1 255-427)
chain: RAEVPGDDRDEAEWSSVPVDEVRVLINELMTIRSKMLLHMVPVDILSRLLRTLDHQIHRAEGLSIYSEHSDSDSVLLVLGALESIHASLAVMANSDMPKQLYKEEIIERILEFSRHQMMAVMSAYDPSYRTGSKPAENLAFEGDDDDDNPDHDMGSASKRRRIVKNSKVKKAS
On to B1, for which, in assay [2], the binding result is listed as “no binding”.

B2: AtSCC2N1 (1–254 aa) (domain or fragment, UniProt A5HEI1 1-254)
chain: MSNPSSSGLGSSSGLTHFGIGLANTVQSEVTPYLPLPSLPIFCGAAEPGEFKLFDEVGQGSGYRSLDRSEILAQSSRIANMLHETDVSYLDLRNEARAPDCNSGEHFQLYDLVLRCNPGAFEYVTPGPTCDPLFTNEGPQKIISEPSVPVKMQRQTDTHLARSIEPEPVKRVLRPNHVEDHSWQHETLTNQSPKDVTAYDSRPETITMNELSASKKPKGKKKRKDDLSSVQPDPSVLQESIVQNFCEMLEDFCG
With B2, the binding result in assay [2] is on record as “binds”.
